Among the data in paper PMC3799625 are binding values, retold here.

Experiment [1] addresses Fas (CD95/APO-1/TNFRSF6) (human (endogenous in Beas2B)) (UniProt P25445). Kind of experiment: co-IP; Beas2B lysate immunoprecipitated with anti-Fas antibody, protein A/G Sepharose, Western blot; cells exposed to hyperoxia (4h, 24h) or room air; also cells with Flot-2 siRNA or control siRNA, and cells over-expressing Flot-2 or with empty vector. For orientation: A western blot detects proteins with antibodies after separation by electrophoresis.

Experiment [2] has as its target T1, Fas (CD95/APO-1/TNFRSF6) (human (endogenous in Beas2B)), P25445.
T1 chain: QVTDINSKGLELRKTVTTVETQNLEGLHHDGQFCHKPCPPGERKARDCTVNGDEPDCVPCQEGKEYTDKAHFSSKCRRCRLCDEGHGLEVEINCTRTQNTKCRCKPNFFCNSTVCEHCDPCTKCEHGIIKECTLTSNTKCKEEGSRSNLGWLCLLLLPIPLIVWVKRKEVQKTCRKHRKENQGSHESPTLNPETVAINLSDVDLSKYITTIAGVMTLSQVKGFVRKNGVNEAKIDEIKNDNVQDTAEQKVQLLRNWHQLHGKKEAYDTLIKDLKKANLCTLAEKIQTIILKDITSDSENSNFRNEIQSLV
Described as above. To be noted: remark: other sources report otherwise.

Results are given in words; binding and its absence hold for the method and conditions named. In cells and extracts the contact can be indirect. Some entries that bind do so weakly or less than the wild type.

B1: Flotillin-2/reggie-1 (protein, UniProt Q14254 1-428)
chain: MGNCHTVGPNEALVVSGGCCGSDYKQYVFGGWAWAWWCISDTQRISLEIMTLQPRCEDVETAEGVALTVTGVAQVKIMTEKELLAVACEQFLGKNVQDIKNVVLQTLEGHLRSILGTLTVEQIYQDRDQFAKLVREVAAPDVGRMGIEILSFTIKDVYDKVDYLSSLGKTQTAVVQRDADIGVAEAERDAGIREAECKKEMLDVKFMADTKIADSKRAFELQKSAFSEEVNIKTAEAQLAYELQGAREQQKIRQEEIEIEVVQRKKQIAVEAQEILRTDKELIATVRRPAEAEAHRIQQIAEGEKVKQVLLAQAEAEKIRKIGEAEAAVIEAMGKAEAERMKLKAEAYQKYGDAAKMALVLEALPQIAAKIAAPLTKVDEIVVLSGDNSKVTSEVNRLLAELPASVHALTGVDLSKIPLIKKATGVQV
As for B1, in experiment [1], the binding result is “binds”.

B2: Fas associated death domain, Q13158 1-208 (protein)
chain: MDPFLVLLHSVSSSLSSSELTELKFLCLGRVGKRKLERVQSGLDLFSMLLEQNDLEPGHTELLRELLASLRRHDLLRRVDDFEAGAAAGAAPGEEDLCAAFNVICDNVGKDWRRLARQLKVSDTKIDSIEDRYPRNLTERVRESLRIWKNTEKENATVAHLVGALRSCQMNLVADLVQEVQQARDLQNRSGAMSPMSWNSDASTSEAS
On to B2, for which the binding result in experiment [2] is on record as “binds”.

B3: caspase-8 (FLICE), Q14790 1-479 (enzyme)
chain: MDFSRNLYDIGEQLDSEDLASLKFLSLDYIPQRKQEPIKDALMLFQRLQEKRMLEESNLSFLKELLFRINRLDLLITYLNTRKEEMERELQTPGRAQISAYRVMLYQISEEVSRSELRSFKFLLQEEISKCKLDDDMNLLDIFIEMEKRVILGEGKLDILKRVCAQINKSLLKIINDYEEFSKERSSSLEGSPDEFSNGEELCGVMTISDSPREQDSESQTLDKVYQMKSKPRGYCLIINNHNFAKAREKVPKLHSIRDRNGTHLDAGALTTTFEELHFEIKPHDDCTVEQIYEILKIYQLMDHSNMDCFICCILSHGDKGIIYGTDGQEAPIYELTSQFTGLKCPSLAGKPKVFFIQACQGDNYQKGIPVETDSEEQPYLEMDLSSPQTRYIPDEADFLLGMATVNNCVSYRNPAEGTWYIQSLCQSLRERCPRGDDILTILTEVNYEVSNKDDKKNMGKQMPQPTFTLRKKLVFPSD
With B3, the binding entry in experiment [2] is “binds”.
